# Results from PubChem BioAssay AID493014 (National Center for Advancing Translational Sciences (NCATS), 2011).
# Hit rate of the full screen: of about 340,000 compounds, about 170 (0.05%) were called active. The shares of active, inactive and inconclusive entries below differ from those in the screen. Calls come from the whole dose curve; as a rule, active = well fitted inhibition curve with a large enough effect in the signal ratio, with a control signal flat (not every such curve was filed as active); inconclusive = small, poorly fitted or top-dose-only effect, or effect the other way, or a change in a side signal; inactive = flat fitted curve, though single readings scatter; the % refers to the signal ratio. Where the call is inconclusive, the potency comes from a doubtful curve fit.
# Experiment: qHTS Assay to Find Inhibitors of Chronic Active B-Cell Receptor Signaling;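 for activity change, negative = inhibition: plate controls were basal doxycycline-induced cells for no effect and cells given 10 µM MG132 for full effect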
# Conditions: ABC-DLBCL IkBa-CBG/CBR reporter, luminescence ratio (green luciferase fused to IkBa over red control in TMD8 lymphoma cells), 4 h
# Summary of the method: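 TMD8 human ABC-DLBCL cells with doxycycline-inducible IκBα–green luciferase fusion and unfused red luciferase, in 0.5% FBS medium; compounds up to 46 uM, 4 h at 37C. Green/red luminescence ratio, filter-overlap corrected, fitted to concentration-response curves.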
# [1] = activity change, negative = inhibition: at 46.1 µM (top of the series)
# Potency is the fitted concentration of half-maximal effect.
compound,measurement,setting,value
CC(C)NC(=O)NC(=O)COC(=O)/C=C/c1ccc2c(c1)OCO2,"activity change, negative = inhibition",[1],inconclusive: 2.65%
CC(=O)Nc1cccc(-c2cnc(N)c(C(=O)c3cccnc3)n2)c1,"activity change, negative = inhibition",[1],inconclusive: 9.94%
CCOC(=O)c1ccc(NC(=O)CCC2COc3ccccc3O2)cc1 (configuration not stated),Potency,[1],"inconclusive: 14.1 µM [rising, single point]"
Cn1c(-c2ccccc2)cnc1NCc1cc2c(cc1[N+](=O)[O-])OCO2,"activity change, negative = inhibition",[1],inconclusive: -15.9%
CCN(C(=O)CSc1nc2cc(C(=O)OC)ccc2c(=O)n1Cc1ccco1)c1cccc(C)c1,"activity change, negative = inhibition",[1],inconclusive: 4.2%
Cn1c(C2=C(O)CN(c3ccc4c(c3)OCCO4)C2=N)nc2ccccc21,"activity change, negative = inhibition",[1],inconclusive: -3.4%
Cc1cc(C(=O)Nc2cccc3ccccc23)n(-c2ccccc2)n1,Potency,[1],"inconclusive: 4.47 µM [falling, full curve]"
C/C(=N\NC(=O)COc1ccccc1)c1ccc(O)cc1,"activity change, negative = inhibition",[1],inactive
Cc1ccc(NC(=O)Cn2cnc3cc([N+](=O)[O-])ccc3c2=O)cc1,"activity change, negative = inhibition",[1],inconclusive: 6.61%
CNC(=O)/C(C#N)=C/c1c(N2CCCCCC2)nc2c(C)cccn2c1=O,"activity change, negative = inhibition",[1],inconclusive: 2.77%
c1ccc(C2=Nn3c(nnc3-c3ccco3)SC2)cc1,"activity change, negative = inhibition",[1],inconclusive: -26%
Cc1cc(/C=C2\SC(=S)NC2=O)cc(C)c1O,"activity change, negative = inhibition",[1],inconclusive: -3.37%
Cn1nnnc1SCC(=O)Nc1ccc(Br)cc1Cl,"activity change, negative = inhibition",[1],inconclusive: 12.9%
CCCn1c(SC(C(=O)Nc2cc(C)ccc2OC)c2ccccc2)nc2ccccc2c1=O (configuration not stated),"activity change, negative = inhibition",[1],inactive
COc1ccccc1CNC(=O)C[n+]1ccccc1,"activity change, negative = inhibition",[1],inconclusive: -6.87%
O=C(NCCc1ccccc1)c1ccccc1NS(=O)(=O)N1CCCC1,"activity change, negative = inhibition",[1],inconclusive: 2%
CC(C)NC(=O)c1ccc2c(=O)n(Cc3ccco3)c(=S)[nH]c2c1,"activity change, negative = inhibition",[1],inconclusive: 1.88%
Cc1ccc(NC(=O)CCC(=O)Nc2nnc(C3CCCCC3)s2)cc1,"activity change, negative = inhibition",[1],inconclusive: 9.49%
CCOc1ncccc1C(=O)OC(C)C(=O)Nc1ccc(N2CCOCC2)cc1 (configuration not stated),"activity change, negative = inhibition",[1],inconclusive: -4.63%
O=C(CNC(=O)c1ccc(-c2ccccc2)cc1)Nc1cccc(CO)c1,"activity change, negative = inhibition",[1],inconclusive: -16.3%
Cc1cc(NC(=O)CSc2nc(-c3ccco3)cc(C(F)(F)F)n2)no1,Potency,[1],"inconclusive: 2.31 µM [falling, partial curve, poor fit]"
O=c1c2cn[nH]c2nc(SCc2cc(=O)n3cc(Br)ccc3n2)n1-c1ccc(Br)cc1,"activity change, negative = inhibition",[1],inconclusive: -6.42%
Cc1c(NC(=O)c2ccc3c4c(cccc24)CC3)c(=O)n(-c2ccccc2)n1C,"activity change, negative = inhibition",[1],inactive
CNC(=O)c1ccc(-c2nc(-c3ccccc3)cs2)cc1,"activity change, negative = inhibition",[1],inconclusive: 1.53%
COc1ccc(NC(=O)CN2C(=O)S/C(=C/c3cccn3-c3ccc(C(=O)O)cc3)C2=O)cc1,"activity change, negative = inhibition",[1],inactive
Cc1ccc(/C(N)=N/OC(=O)c2cccs2)cc1,"activity change, negative = inhibition",[1],inconclusive: -29.3%
COc1ccc(S(=O)(=O)N(C)CC(=O)Nc2ccc(C(F)(F)F)cc2)cc1Cl,"activity change, negative = inhibition",[1],inconclusive: 17.6%
Nc1[nH]n2c(=O)cc(-c3ccccc3)nc2c1N=Nc1ccc(S(N)(=O)=O)cc1,"activity change, negative = inhibition",[1],inactive
CCc1ccc(-n2c(SCC(=O)NC(C)CC)nc3n[nH]c(C)c3c2=N)cc1 (configuration not stated),"activity change, negative = inhibition",[1],inconclusive: -7.29%
CCOc1ccccc1CNC(=O)C1CCCN(c2nc3ccccc3o2)C1 (configuration not stated),"activity change, negative = inhibition",[1],inconclusive: -2.17%
CCCOc1ccc(Cl)cc1CNc1ccccc1,"activity change, negative = inhibition",[1],inconclusive: 20.8%
COc1ccc(NC(=O)CN(C)CC(=O)Nc2ccc(Cl)cc2[N+](=O)[O-])cc1,"activity change, negative = inhibition",[1],inconclusive: -0.709%
CC(=O)NC(=S)Nc1ccc(NC(=O)COc2ccc(Cl)cc2)cc1,Potency,[1],"inconclusive: 20.6 µM [falling, partial curve, poor fit]"
CCOc1ccc(-n2c(-c3ccccc3)nnc2-c2ccccc2)cc1,"activity change, negative = inhibition",[1],inactive
Cc1ccccc1NC(=O)C1CCCN(c2ncnc3onc(-c4ccc(F)cc4)c23)C1 (configuration not stated),"activity change, negative = inhibition",[1],inactive
Cc1oc2ccc(OCc3ccc(F)cc3)cc2c1C(=O)O,"activity change, negative = inhibition",[1],inconclusive: 5.38%
COc1ccccc1NC(=O)C(C)n1cnc2c(oc3nc4c(cc32)CCCC4)c1=O (configuration not stated),"activity change, negative = inhibition",[1],inactive
O=C(NN(c1ccccc1)c1ccccc1)c1ccc([N+](=O)[O-])o1,"activity change, negative = inhibition",[1],inconclusive: -23.1%
O=C(NCCc1ccccc1)C1CCN(S(=O)(=O)c2cccs2)CC1,"activity change, negative = inhibition",[1],inconclusive: 0.0643%
O=C(NNC(=O)c1csc(N2CCOCC2)n1)c1ccc(Cl)nc1,"activity change, negative = inhibition",[1],inconclusive: -5.26%
CSc1nc(=O)n2cccc(C)c2n1,"activity change, negative = inhibition",[1],inconclusive: -2.69%
O=S(=O)(c1ccccc1)c1ncc(C(F)(F)F)cc1Cl,"activity change, negative = inhibition",[1],inconclusive: 3.32%
CCCCCC(=O)Nc1ccc(C2C(=O)c3ccccc3C2=O)cc1,"activity change, negative = inhibition",[1],inconclusive: 2.41%
CC1CCN(CCOc2ccc(Cl)c(Cl)c2)CC1,"activity change, negative = inhibition",[1],inconclusive: 1.16%
O=C(Nc1c(C(=O)O)oc2ccc(Br)cc12)c1ccccc1,Potency,[1],"inconclusive: 12.6 µM [falling, partial curve, poor fit]"
O=C(COc1ccc2ccccc2c1)NNC(=O)c1cnccn1,"activity change, negative = inhibition",[1],inactive
Cc1nn(-c2ccc(C(F)(F)F)cn2)c(C)c1Oc1ccccc1O,Potency,[1],"inconclusive: 32.6 µM [rising, partial curve, poor fit]"
CCOC(=O)C(=O)/C(C#N)=C/Nc1ccc(Cl)cc1,Potency,[1],"inconclusive: 9.2 µM [falling, partial curve]"
CN(C)c1ccc(C(=O)OCC#CCSc2nnc(-c3cccc4ccccc34)o2)cc1,"activity change, negative = inhibition",[1],inconclusive: 5.66%
same,"activity change, negative = inhibition",at 46.1 µM (top of the series),inactive: 3.28%
COC(=O)c1ccc(COc2cccc3c2CCN(Cc2ccccc2)C3=O)o1,Potency,[1],"inconclusive: 29.1 µM [falling, single point]"
N/C(=N\NC(=O)Nc1ccc(Cl)cc1)c1ccccn1,Potency,[1],"inconclusive: 35.5 µM [rising, single point]"
Cc1ccc(-n2cc(C(=O)O)c(=O)cc2C)c(C)c1,"activity change, negative = inhibition",[1],inconclusive: 3.01%
CCOc1ccc(OCCC(=O)OCC(=O)Nc2cc(OCC)c(N3CCOCC3)cc2OCC)cc1,"activity change, negative = inhibition",[1],inconclusive: -15.8%
CCOc1cccc(/C=N/NC(=S)Nc2ccccc2[N+](=O)[O-])c1O,"activity change, negative = inhibition",[1],inconclusive: -12.5%
Cc1c(C(=O)OCC(C)C)[nH]c2c1C(=O)CC(c1ccco1)C2 (configuration not stated),"activity change, negative = inhibition",[1],inconclusive: -0.116%
Cc1cc2n(n1)CCCN2C(=O)Nc1ccc(Cl)cc1,Potency,[1],"inconclusive: 1.78 µM [rising, partial curve, poor fit]"
CSc1ncccc1C(=O)OCC(=O)Nc1cccc(S(=O)(=O)N2CCOCC2)c1,Potency,[1],"inconclusive: 18.4 µM [falling, single point]"
O=C(/C=C/c1c(Cl)cccc1Cl)N1CCOCC1,"activity change, negative = inhibition",[1],inconclusive: -2.63%
O=C(NCc1ccccc1)c1onc(CS(=O)(=O)c2ccc(Cl)cc2)c1C(=O)NCc1ccccc1,"activity change, negative = inhibition",[1],inactive
Cc1nc2ccc(C(=O)N3CCCC(CO)(Cc4ccc(F)cc4F)C3)cc2nc1C (configuration not stated),"activity change, negative = inhibition",[1],inconclusive: -1.44%
CCn1c(=O)c2c(n3c(=S)[nH]nc13)-c1ccccc1CC21CCCCC1,Potency,[1],"inconclusive: 5.01 µM [falling, partial curve, poor fit]"
CN(CC(=O)Nc1ccc(F)cc1)C(=O)c1cccc(S(=O)(=O)N2CCN(c3ccc(F)cc3)CC2)c1,"activity change, negative = inhibition",[1],inconclusive: -7.59%
CC(C)c1onc(C(=O)N2CCN(c3ccccc3)CC2)c1[N+](=O)[O-],"activity change, negative = inhibition",[1],inactive
COc1ccc(-n2cc(CNCCCn3ccnc3)c(-c3cccc(F)c3)n2)cc1,Potency,[1],"inconclusive: 20 µM [falling, single point]"
O=C(NN=Cc1c(O)ccc2ccccc12)c1ccc2c(c1)OCO2,"activity change, negative = inhibition",[1],inconclusive: -16.9%
O=C(COC(=O)c1ccc(O)cc1O)Nc1cc(-c2ccccc2)nn1-c1ccccc1,"activity change, negative = inhibition",[1],inconclusive: 3.6%
O=C(Cn1[nH]c(=O)c2ccccc2c1=O)NNC(=O)c1ccccc1,"activity change, negative = inhibition",[1],inactive
O=C(Nc1ccc(Cl)cc1)N[C@@H]1c2c(ccc3ccccc23)OC[C@@H]1CO,Potency,[1],"inconclusive: 22.4 µM [rising, single point]"
CCc1ccc(NS(=O)(=O)c2cc3c(cc2C)n(C)c(=O)c(=O)n3C)cc1,"activity change, negative = inhibition",[1],inactive
COc1ccc(OC)c(NC(=O)CC2(CC(=O)O)CCCC2)c1,"activity change, negative = inhibition",[1],inconclusive: -19.3%
CCn1c(N)c(C(=O)NC2CCCCC2)sc1=S,Potency,[1],"inconclusive: 5.17 µM [falling, single point]"
Cc1ccc(/C=C/C(=O)N2CCCN(C(=O)/C=C/c3ccc(C)cc3)CC2)cc1,"activity change, negative = inhibition",[1],inactive
Cc1cccc(NC(=O)C2CCN(S(=O)(=O)c3cccc4nonc34)CC2)c1,Potency,[1],"inconclusive: 3.55 µM [falling, partial curve, poor fit]"
COc1ccccc1N1CCN(S(=O)(=O)c2cc(C)sc2C)CC1,"activity change, negative = inhibition",[1],inconclusive: 22%
COC(=O)C1CN(C(=O)COc2ccc(Cl)c(C)c2)c2ccccc2O1 (configuration not stated),"activity change, negative = inhibition",[1],inconclusive: -8.76%
Cc1cc(C)nc(SCc2cc(=O)c(OC(=O)c3ccc(Br)o3)co2)n1,Potency,[1],"inconclusive: 32.6 µM [falling, partial curve, poor fit]"
CC(=O)OCCc1c(C)nc2nc[nH]n2c1=O,"activity change, negative = inhibition",[1],inconclusive: 8.86%
N#CCSc1nc(Nc2ccc3c(c2)OCO3)c2ccccc2n1,"activity change, negative = inhibition",[1],inconclusive: -1.29%
O=c1oc2c(CN3CCOCC3)c(O)ccc2c2c1CCC2,"activity change, negative = inhibition",[1],inconclusive: -1.79%
COc1ccc(N(CC(O)Cn2c3ccccc3c3ccccc32)S(=O)(=O)c2ccccc2)cc1 (configuration not stated),"activity change, negative = inhibition",[1],inconclusive: 7.98%
C[C@H](CO)N1C[C@H](C)[C@@H](CN(C)CC2CCCCC2)Oc2c(NC(=O)Cc3ccccc3)cccc2C1=O,"activity change, negative = inhibition",[1],inconclusive: -5.1%

# Shown tab-delimited: part of the list above.
compound	measurement	setting	value
c1ccc(C2=Nn3c(nnc3-c3ccco3)SC2)cc1	activity change, negative = inhibition	[1]	inconclusive: -26%
Cc1cc(/C=C2\SC(=S)NC2=O)cc(C)c1O	activity change, negative = inhibition	[1]	inconclusive: -3.37%
Cn1nnnc1SCC(=O)Nc1ccc(Br)cc1Cl	activity change, negative = inhibition	[1]	inconclusive: 12.9%
